Test results published in paper PMC12243203.
No constants are given. Whether binding was seen depends on the method and setting.

Biological target: pGBKT7-EtSERPIN1 (yeast two-hybrid bait) (Eimeria tenella)
Assay: two-hybrid; pGBKT7-EtSERPIN1 bait co-transformed with pGADT7 preys into Y2H Gold; growth and colour on DDO/X/A and QDO/X/A plates, 30 °C, 3-5 days

B1: pGADT7-GgANXA5 (yeast two-hybrid prey) (protein, UniProt P17153 1-321)
chain: MAKYTRGTVTAFSPFDARADAEALRKAMKGMGTDEETILKILTSRNNAQRQEIASAFKTLFGRDLVDDLKSELTGKFETLMVSLMRPARIFDAHALKHAIKGAGTNEKVLTEILASRTPAEVQNIKQVYMQEYEANLEDKITGETSGHFQRLLVVLLQANRDPDGRVDEALVEKDAQVLFRAGELKWGTDEETFITILGTRSVSHLRRVFDKYMTISGFQIEETIDRETSGDLEKLLLAVVKCIRSVPAYFAETLYYSMKGAGTDDDTLIRVMVSRSEIDLLDIRHEFRKNFAKSLYQMIQKDTSGDYRKALLLLCGGDDE
**Q.** With B1 as the binder, how does the binding read?
**A.** no binding
